Publication PMC10762000
Results are given in words; binding and its absence hold for the method and conditions named. In cells and extracts the contact can be indirect. Some results given as binding are weak or reduced against the parent protein; the word gives no strength. Sequences can lack the tags named with a protein.

Molecular target: T1, murine TLR9 with C-terminal HA tag (mTLR9-HA) (mouse) (UniProt Q9EQU3)
T1 sequence: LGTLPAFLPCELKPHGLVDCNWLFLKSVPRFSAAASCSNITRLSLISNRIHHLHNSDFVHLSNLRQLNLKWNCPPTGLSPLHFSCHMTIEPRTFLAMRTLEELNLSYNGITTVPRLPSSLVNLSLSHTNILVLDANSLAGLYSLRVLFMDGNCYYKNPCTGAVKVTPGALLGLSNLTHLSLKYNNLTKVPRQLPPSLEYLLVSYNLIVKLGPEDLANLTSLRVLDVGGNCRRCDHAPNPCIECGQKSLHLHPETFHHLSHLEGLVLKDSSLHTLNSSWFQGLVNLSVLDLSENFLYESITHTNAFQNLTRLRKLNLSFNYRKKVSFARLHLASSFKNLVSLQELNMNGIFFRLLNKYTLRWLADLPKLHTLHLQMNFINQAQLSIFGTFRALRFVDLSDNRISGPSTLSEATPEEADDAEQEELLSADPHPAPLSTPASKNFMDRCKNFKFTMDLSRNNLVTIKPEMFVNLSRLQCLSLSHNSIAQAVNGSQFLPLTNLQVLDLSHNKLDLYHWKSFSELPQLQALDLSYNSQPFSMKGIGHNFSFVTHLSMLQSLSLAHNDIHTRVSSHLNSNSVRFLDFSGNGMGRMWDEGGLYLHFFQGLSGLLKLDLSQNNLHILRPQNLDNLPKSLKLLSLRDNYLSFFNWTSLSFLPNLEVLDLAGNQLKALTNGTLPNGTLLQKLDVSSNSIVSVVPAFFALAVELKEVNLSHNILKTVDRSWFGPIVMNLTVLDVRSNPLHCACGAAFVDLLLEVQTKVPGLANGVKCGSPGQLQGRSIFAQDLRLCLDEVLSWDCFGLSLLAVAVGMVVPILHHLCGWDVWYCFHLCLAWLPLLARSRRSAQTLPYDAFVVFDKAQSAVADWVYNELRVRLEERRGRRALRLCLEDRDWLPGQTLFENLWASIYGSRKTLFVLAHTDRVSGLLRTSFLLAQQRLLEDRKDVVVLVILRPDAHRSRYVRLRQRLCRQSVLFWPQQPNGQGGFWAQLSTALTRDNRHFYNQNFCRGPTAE
Assay: co-IP; Immunoprecipitation of TLR9-HA with anti-HA matrix from lysates (1 mg per 1 ml) of RAW macrophage lines treated overnight with DMSO or HDSF, overnight at 4 °C, 4 washes with lysis buffer; immunoblot of UNC93B1-FLAG

- binding: binds
B1: UNC93B1-FLAG (protein, UniProt Q8VCW4 1-598)
chain: MEVEPPLYPVAGAAGPQGDEDRHGVPDGPEAPLDELVGAYPNYNEEEEERRYYRRKRLGVVKNVLAASTGVTLTYGVYLGLLQMQLILHYDETYREVKYGNMGLPDIDSKMLMGINVTPIAALLYTPVLIRFFGTKWMMFLAVGIYALFVSTNYWERYYTLVPSAVALGMAIVPLWASMGNYITRMSQKYYEYSHYKEQDEQGPQQRPPRGSHAPYLLVFQAIFYSFFHLSFACAQLPMIYFLNNYLYDLNHTLINVQSCGTKSQGILNGFNKTVLRTLPRSKNLIVVESVLMAVAFLAMLMVLGLCGAAYRPTEEIDLRSVGWGNIFQLPFKHVRDFRLRHLVPFFIYSGFEVLFACTGFALGYGVCSMGLERLAYLLIAYSLGASASSVLGLLGLWLPRSVPLVAGAGLHLLLTLSLFFWAPAPRVLQHSWIFYFVAALWGVGSALNKTGLSTLLGILYEDKERQDFIFTIYHWWQAVAIFVVYLGSSLPMKAKLAVLLVTLVAAAASYLWMEQKLQQGLVPRQPRIPKPQHKVRGYRYLEEDNSDESDMEGEQGQGDCAEDEAPQAGPLGAEPAGPCRKPCPYEQALGGDGPEEQ
